{
  "source": "patent US20210395322A1",
  "about": "(OSR, published 2021)",
  "key": {"[1]": {"target": "T1, Noggin (UniProt Q13253 28-232, limits assumed)", "T1 sequence (looked up)": "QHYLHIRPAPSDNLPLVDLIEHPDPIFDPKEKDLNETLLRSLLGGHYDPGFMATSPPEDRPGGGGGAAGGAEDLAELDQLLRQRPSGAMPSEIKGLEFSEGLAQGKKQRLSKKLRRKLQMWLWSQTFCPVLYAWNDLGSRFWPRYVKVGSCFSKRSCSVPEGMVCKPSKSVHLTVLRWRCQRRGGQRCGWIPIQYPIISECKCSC", "assay": "size-exclusion chromatography"}, "[2]": {"target": "T1, Noggin", "assay": "size-exclusion chromatography, shift in elution time of the Noggin-NAB204 complex"}},
  "note": "These are yes or no findings as the source states them, for the method shown. Some binding calls cover weakened binding; strength is not graded here.",
  "data": [
    {"binder": "NAB204 (ligand) MQAKHKQRKRLKSSCKRHPLYVDFSDVGWNDWIIAPSGYHANYCDGECPFPLADHLNSTNHAIVQTLVNSVNSKIPKACCVPTKLRPMSMLYYDDGQNVVLKNYQNMIVEECGCS", "values": [
      {"measurement": "binding", "setting": "[1]", "value": "binds"},
      {"measurement": "binding", "setting": "[2]", "value": "binds"}
    ]}
  ]
}
